The list shows only some results of the screen, not a fair sample: its compounds were picked by chemical class. Not every dose and run of a compound is shown. T/C is the treated group as % of the vehicle group. Some entries give survivors of the animals treated and no T/C: the source files T/C as zero there, which appears to mark a toxic dose or a test without result, not a measured value. Some survivor counts are full or nearly so, which does not show that the dose was tolerated: the source hardly ever lists a survival T/C far under the control, and the zero likely stands for such cases as well. Survivors were counted at the toxicity check, usually on the fifth day, unless a day is given; later deaths do not show. Schedules are NCI's codes, read here as Q, the interval in days (D) or hours (H), X, the number of doses. Where survival is the endpoint, the PubChem record calls one and a half times the control and up active, and a quarter to a half above the control has no call in these data; cut-offs in other NCI protocols can differ. Some T/C values are followed by the survivors on the day toxicity was checked, most often the fifth; without a count or a note in brackets, all were alive then. Some entries hold several experiments; the values are given in rising order. Some entries show no survivor count and are marked so; the dose need not have been tolerated.

The assay deals with L1210 leukemia ip in BDF1 mice, survival T/C. Description: NCI In Vivo Anticancer Drug Screen. Data for tumor model L1210 Leukemia (intraperitoneal) in B6D2F1 (BDF1) mice. Particulars: T/C endpoint: mean survival time, higher T/C = longer survival.
[1] abbreviates: dose: 400.0 mg/kg/injection, schedule: Q01DX009 (ip), vehicle: carboxymethylcellulose (CMC).

With `CCCCO[PH](=O)OCCCC.[I][Hg]`, the T/C was 108 % of control (dose: 25.0 mg/kg/injection, schedule: Q04DX002 (ip), vehicle: Klucel (hydroxypropylcellulose) (HPC)); 91 % of control (dose: 50.0 mg/kg/injection, schedule: Q04DX002 (ip), vehicle: Klucel (hydroxypropylcellulose) (HPC)); 98 % of control [2 of 3 alive] (dose: 100.0 mg/kg/injection, schedule: Q04DX002 (ip), vehicle: saline with Tween-80). The survivor count is reported as 3 of 3 (dose: 100.0 mg/kg/injection, schedule: Q04DX002 (ip), vehicle: Klucel (hydroxypropylcellulose) (HPC)); 0 of 3 (dose: 200.0 mg/kg/injection, schedule: Q04DX002 (ip), vehicle: saline with Tween-80); 0 of 3 (dose: 400.0 mg/kg/injection, schedule: Q04DX002 (ip), vehicle: saline with Tween-80).
For the compound `O=C(OC1CN2CCC1CC2)c1ccccc1O` (stereo unspecified), the T/C is 96 % of control (dose: 6.25 mg/kg/injection, schedule: Q04DX003 (ip), vehicle: saline); 97 % of control (dose: 12.5 mg/kg/injection, schedule: Q04DX003 (ip), vehicle: saline); 100 % of control (dose: 25.0 mg/kg/injection, schedule: Q04DX003 (ip), vehicle: saline).
Regarding `O=C(NO)N/N=C/c1ccc(N(CCCl)CCCl)cc1`, the T/C is, setting by setting: (dose: 118.0 mg/kg/injection, schedule: Q01DX009 (ip), vehicle: carboxymethylcellulose (CMC)) 115 and 134 % of control; (dose: 177.0 mg/kg/injection, schedule: Q01DX001 (ip), vehicle: carboxymethylcellulose (CMC)) 123 % of control; (dose: 177.0 mg/kg/injection, schedule: Q01DX009 (ip), vehicle: carboxymethylcellulose (CMC)) 128 and 151 % of control; (dose: 266.0 mg/kg/injection, schedule: Q01DX001 (ip), vehicle: carboxymethylcellulose (CMC)) 130 and 137 % of control; (dose: 266.0 mg/kg/injection, schedule: Q01DX007 (ip), vehicle: carboxymethylcellulose (CMC)) 168 % of control; (dose: 266.0 mg/kg/injection, schedule: Q01DX009 (ip), vehicle: carboxymethylcellulose (CMC)) 119 and 120 % of control [5 of 6 alive]. Further, the T/C (dose: 400.0 mg/kg/injection, schedule: Q01DX001 (ip), vehicle: carboxymethylcellulose (CMC)) was 110 and 140 % of control; the T/C (dose: 400.0 mg/kg/injection, schedule: Q01DX007 (ip), vehicle: carboxymethylcellulose (CMC)) was 121 % of control; the T/C under setting [1] was 143 % of control; the T/C (dose: 600.0 mg/kg/injection, schedule: Q01DX001 (ip), vehicle: carboxymethylcellulose (CMC)) is 121 and 148 % of control. Also, the survivor count under setting [1] is on record as 6 of 6 and the survivor count (dose: 600.0 mg/kg/injection, schedule: Q01DX007 (ip), vehicle: carboxymethylcellulose (CMC)) is reported as 4 of 6.
Regarding `CP(C)(N)(Cl)c1ccccc1`, the survivor count is recorded as 1 of 6 (dose: 100.0 mg/kg/injection, schedule: Q01DX001 (ip), vehicle: saline); 0 of 6 (dose: 200.0 mg/kg/injection, schedule: Q01DX001 (ip), vehicle: saline); 0 of 6 (dose: 400.0 mg/kg/injection, schedule: Q01DX001 (ip), vehicle: saline).
Regarding `Cc1c([N+](=O)[O-])c(C)c([N+](=O)[O-])c(Nc2c([N+](=O)[O-])c(C)c([N+](=O)[O-])c(C)c2[N+](=O)[O-])c1[N+](=O)[O-]`, the T/C reads like this: (dose: 5.0 mg/kg/injection, schedule: Q01DX001 (ip), vehicle: saline) 103 % of control [survivor count not shown]; (dose: 10.0 mg/kg/injection, schedule: Q01DX001 (ip), vehicle: saline) 97 % of control [survivor count not shown]; (dose: 11.0 mg/kg/injection, schedule: Q01DX001 (ip), vehicle: saline) 102 % of control [survivor count not shown]; (dose: 17.0 mg/kg/injection, schedule: Q01DX001 (ip), vehicle: saline) 98 % of control [survivor count not shown]; (dose: 20.0 mg/kg/injection, schedule: Q01DX001 (ip), vehicle: saline) 106 % of control [survivor count not shown]; (dose: 25.0 mg/kg/injection, schedule: Q01DX001 (ip), vehicle: saline) 102 % of control [survivor count not shown]. The T/C was 90 [survivor count not shown], 96 [survivor count not shown], 100 [survivor count not shown], 102 % of control [survivor count not shown] (dose: 40.0 mg/kg/injection, schedule: Q01DX001 (ip), vehicle: saline); 107 % of control [survivor count not shown] (dose: 60.0 mg/kg/injection, schedule: Q01DX001 (ip), vehicle: saline); 104 % of control [survivor count not shown] (dose: 90.0 mg/kg/injection, schedule: Q01DX001 (ip), vehicle: saline); 101 [survivor count not shown] and 109 % of control [survivor count not shown] (dose: 135.0 mg/kg/injection, schedule: Q01DX001 (ip), vehicle: saline).
On to `CP1(=S)SP(C)(=S)S1` (stereo unspecified), for which the T/C (dose: 100.0 mg/kg/injection, schedule: Q04DX003 (ip), vehicle: saline) is 102 % of control [survivor count not shown] and the T/C (dose: 200.0 mg/kg/injection, schedule: Q04DX003 (ip), vehicle: saline) is 100 % of control [survivor count not shown].

These data come from PubChem BioAssay AID248 (DTP/NCI, 2004).
